The target in experiment [1] is PFV-Gag NtDCEN (Prototype foamy virus (PFV)) (UniProt P14349). The experiment is described as follows: AUC; sedimentation velocity, 50,000 rpm, 293 K, 20 mM Tris-HCl pH 8, 150 mM NaCl, 0.5 mM TCEP, interference data, 0.5-2.0 mg/ml, C(S) analysis with SEDFIT; both purified.
Experiment [2] has as its target PFV-Gag(300–477) (Prototype foamy virus (PFV)) (UniProt P14349). The experiment is described as above.
Experiment [3] has the same target. As to the kind of experiment: AUC; multi-speed sedimentation equilibrium at varying protein concentration, 20 mM Tris-HCl pH 8, 150 mM NaCl, 0.5 mM TCEP, interference data, global fit with SEDPHAT; monomer to dimer; both purified.
Experiment [4] deals with PFV-Gag CtDCEN (Prototype foamy virus (PFV)) (UniProt P14349). As to the kind of experiment: AUC; sedimentation velocity, 50,000 rpm, 293 K, 20 mM Tris-HCl pH 8, 150 mM NaCl, 0.5 mM TCEP, interference data, 0.5-2.0 mg/ml, C(S) analysis with SEDFIT; both purified.
For experiment [5] the target is unchanged. The experiment is described as follows: NMR solution structure; 298 K, 20 mM Tris-HCl, 20 mM NaCl, 0.5 mM TCEP pH 7.0, 1.6-2 mM protein; intermolecular NOEs from filtered NOESY on a dimer of unlabelled and 13C/15N-labelled protein mixed equimolar; both purified.

These are yes or no findings as the source states them, for the method shown. Some binding calls cover weakened binding; strength is not graded here.

On to “PFV-Gag NtDCEN (from UniProt P14349 300-381) (domain or fragment)”, for which the binding result in experiment [1] was “no binding (tested: 188 μM)”.
As to “PFV-Gag(300–477) (from UniProt P14349 300-477) (domain or fragment)”, the binding entry in experiment [2] and in experiment [3] was “no binding (tested: 24–97 μM)” throughout.

B1: PFV-Gag CtDCEN (domain or fragment)
chain: RTHGTFPMHQLGNVIKGIVDQEGVATAYTLGMMLSGQNYQLVSGIIRGYLPGQAVVTALQQRLDQEIDNQTRAETFIQHLNAVYEILGLNARGQSIR
notes: Gag of Prototype foamy virus (PFV), residues 381-477 (CtDCEN), amplified from plasmid pcziGag4, in pET22b (NdeI/XhoI); also called PFV-CtDCEN; source: E. coli Rosetta 2 (DE3), purified (Ni-NTA, SEC on Superdex 75)
Regarding B1, the binding result in experiment [4] and in experiment [5] was “binds weakly” in each case.
